# Publication PMC7557908
# Chains of the proteins cited; added tags and fusions are not shown. Lines headed by an entry give the natural chain unless they say otherwise; changes in a name come on top.
# UniProt Q08397: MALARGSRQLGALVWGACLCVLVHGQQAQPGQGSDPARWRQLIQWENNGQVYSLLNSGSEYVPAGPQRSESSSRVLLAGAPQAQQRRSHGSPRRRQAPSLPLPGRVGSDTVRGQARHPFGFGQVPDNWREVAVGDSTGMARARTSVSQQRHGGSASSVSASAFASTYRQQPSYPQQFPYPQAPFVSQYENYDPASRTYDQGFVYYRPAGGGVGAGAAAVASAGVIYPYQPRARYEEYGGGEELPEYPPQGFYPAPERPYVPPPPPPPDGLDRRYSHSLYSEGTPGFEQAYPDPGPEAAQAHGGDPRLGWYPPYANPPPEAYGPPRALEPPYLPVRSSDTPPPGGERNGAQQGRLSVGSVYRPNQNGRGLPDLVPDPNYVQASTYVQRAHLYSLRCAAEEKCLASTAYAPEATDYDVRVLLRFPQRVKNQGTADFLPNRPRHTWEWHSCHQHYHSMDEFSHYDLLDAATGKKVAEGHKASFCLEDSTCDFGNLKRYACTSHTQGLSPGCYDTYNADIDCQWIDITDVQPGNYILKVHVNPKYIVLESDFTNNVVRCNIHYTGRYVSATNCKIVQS
# UniProt O95816: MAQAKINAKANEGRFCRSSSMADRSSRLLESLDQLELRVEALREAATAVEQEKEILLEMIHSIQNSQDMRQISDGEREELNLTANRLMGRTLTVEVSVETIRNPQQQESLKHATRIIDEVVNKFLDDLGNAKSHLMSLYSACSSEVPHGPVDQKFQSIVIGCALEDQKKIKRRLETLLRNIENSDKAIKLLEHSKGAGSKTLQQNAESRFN
# These are yes or no findings as the source states them, for the method shown. In cells and extracts the contact can be indirect. Binding calls can cover weak binding; strength is not graded here.
# Target: GST-LOXL1 full length (FL), wild type (human (LOXL1 cloned from LN18 cDNA)) (UniProt Q08397)
# Test: pull-down; GST pull-down: GST-LOXL1 constructs incubated with His-BAG2 constructs; called a direct interaction (Fig. 4c, 4d, 4f)
substance,measurement,value
His-BAG2 full length (FL) (from UniProt O95816 1-211),binding,binds
